pIC50: −log10 of the molar value.
How the values were obtained:
[1] = system: spheroids consisting only of human hepatocytes (PXB cells); test: ATP assay (CellTiter Glo 3D) viability after exposure to hepatotoxicity-inducing compounds, Test Example 6 Condition 2; type: cell-based; conditions: calculated from cell viability (ATP), hepatocyte spheroids, exposure 168 hours, no bile acids, read-out: IC50 Condition 2 (spheroid)
[2] = system: three-dimensional hepatic tissue consisting only of human hepatocytes (PXB cells); test: ATP assay (CellTiter Glo 3D) viability after exposure to hepatotoxicity-inducing compounds, Test Example 6 Condition 1; type: cell-based; conditions: Hepatocyte, calculated from cell viability (ATP), exposure 168 hours from day 8 of culture, no bile acids, read-out: IC50 Condition 1 (present tissue)
Protocol: The resulting mixture was centrifuged at room temperature at 400×g for 2 minutes, the supernatant was removed, and the cells were resuspended in an HCM (product number “CC-3198”, manufactured by Lonza) containing 10 U/mL thrombin (product number “R4648”, manufactured by Sigma-Aldrich) and 1 v/v % endothelial cell growth supplement (ECGS) (product number “1052”, manufactured by Sciencell) to a cell density of 1.95×10^4 cells/2 μL to obtain a cell suspension.
2 μL of an HCM containing 5 mg/mL fibrinogen and 1 v/v % ECGS was added to a 48-well microplate (product number “3830-048”, manufactured by AGC Techno Glass) to form a droplet. The cell suspension was added to the interior of each droplet, and the 48-well microplate was then left to stand in an incubator for 40 minutes to form a fibrin gel in which the human hepatocytes were embedded. 0.5 mL of HCM containing 1 v/v % ECGS was added to each well in which the fibrin gel had been formed, and the cells were cultured under the conditions of 37° C. and 5% CO2. After the start of the culture, the medium was changed every two days.

CC/C(=C(\c1ccccc1)c1ccc(OCCN(C)C)cc1)c1ccccc1 [Tamoxifen]
pIC50 [1]: 5.19 | pIC50 [2]: 5.20

Source: US20250368962A1, “THREE-DIMENSIONAL HEPATIC TISSUE AND METHOD OF MANUFACTURING THE SAME” (TOPPAN HOLDINGS INC., priority 2023, published 2025)
